Test results taken from patent US20150174144A1, “TETRACYCLINE COMPOUNDS FOR TREATING NEURODEGENERATIVE DISORDERS” (PARATEK PHARMACEUTICALS, INC., priority 2012, published 2015).
Values joined by “and” are separate entries in the source; they are usually repeats but may differ in a detail not shown here. Equal values may be shown once. At least one structure is not confirmed: it was looked up by name or label, or the drawing left a doubt.

Tests used:
[1] = Peroxynitrite-carbonate radical scavenging assay (DHR probe); conditions: for IC50: Sin-1, 37° C., 8 minutes, read-out: IC50, inhibition of oxidation of DHR probe (peroxynitrite-carbonate scavenging); for Uric Acid Equivalents: relative to uric acid
Description: Inflammatory conditions are characterized by increasing concentrations of reactive oxygen species. In this study, the ability of Compound 1 to specifically scavenge peroxynitrite-carbonate radicals was determined.
To the first column of a 96-well PCR plate (0.2 mL volume) was added 160 μL of TCWS. One well of the first column would equal one IC50 determination. Typically, test compounds were assayed in duplicate, i.e. two wells of column 1 were filled with each TCWS. To the remaining wells in columns 2-11 was added 80 μL of DWS. Using a multichannel pipettor, column 1 was serially diluted in 2-fold dilutions by removing 80 μL from column 1 and transferring with mixing to column 2. Column 2 was then diluted to column 3 and so on until column 11 where 80 μL of the diluted mixture was removed and discarded. At least 2 wells of row 12 were designated as the 0 test compound control to which 80 μL of DWS was added. One well of row 12 per test compound was designated as the background control to which 80 μL of the TCWS was added.
(§1) The plate was covered and incubated for 5 minutes at 37° C. upon which the reaction was initiated by addition of 20 μL of Sin-1 to columns 1-11 using a multichannel pipettor with mixing. The reaction was initiated similarly to the 0 test compound wells of column 12. To the background control wells was added 20 μL of PC buffer. The plate was incubated at 37° C. for 8 minutes (the reaction is linear for 10 minutes) and quenched by addition of 50 μL of AA to all wells with mixing. The plate was placed on ice for 5 minutes. Quenched assay mixtures were stable at room temperature for at least 24 hours.
Each reaction mixture (20 μL) was analyzed for rhodamine 123 product by HPLC using a Phenomenex Luna C18(2) column, 3 um, 4.6×50 mm using an A buffer of water+0.1% TFA and a B buffer of acetonitrile+0.1% TFA and the following gradient method: […]
The absorbance at 280 nm was also recorded to ensure no co-elution of test compound peaks.
Initial examination of the background control samples at the highest test compound concentration were performed to ensure no co-elution of test compound peaks with the product rhodamine 123 at 4 minutes. If co-elution was observed, the compound was not tested until an appropriate HPLC method was developed to separate the product and test compound peaks. The rhodamine 123 AUC was then determined for each test compound concentration and the percent inhibition of rhodamine 123 fluorescence was then determined by the following equation:
% Inhibition=[(AUCo−AUCx)/AUCo]*100
Where AUCo is the AUC of the rhodamine 123 peak at 0 test compound concentration and AUCX is the AUC of the rhodamine 123 peak at each test compound concentration=x.
The standard error of the curve fit for the IC50 was also determined along with the Hill slope. The IC50 determined for uric acid was divided by the IC50 determined for each test compound to generate Uric Acid Equivalents, a measure of the peroxynitrite-carbonate radical scavenging ability relative to uric acid.
Uric Acid Equivalents=[…]

[2] = Alkylperoxy radical scavenging assay (AIPH, AE-Trolox oxidation); conditions: for IC50: 5 mM AIPH, 37° C., 8 minutes, read-out: IC50, inhibition of AE-Trolox oxidation (alkylperoxy radical scavenging); for Percent Trolox Activity / Trolox Equivalents: relative to Trolox
Description: In a separate assay, alkylperoxy radicals were generated in vitro using the radical generator AIPH (2,2′-azobis-[2-(2-imidazolyn-2-yl)-propane) and the ability of tetracyclines to scavenge these radicals was determined. […] Also, the ability of Compound 1 and minocycline to specifically scavenge peroxynitrite-carbonate radicals was determined.
In this study, alkylperoxy radicals were generated in vitro using the radical generator AIPH (2,2′-azobis-[2-(2-imidazolyn-2-yl)-propane) and the ability of tetracyclines, such as Compound 1, to scavenge these radicals was determined.
Trolox is a known scavenger of peroxyradicals. Structurally similar to a-tocopherol, Trolox reacts with peroxyradicals via a known mechanism with linear kinetics under excess oxygen conditions. In the presence of a competing antioxidant compound, the rate of Trolox oxidation will change based on the relative rate of oxidation and concentration of the competing antioxidant compound (Huang, et al., J. Agric. Food Chem. 2005, 25, 1841-1856). By measuring the effect of antioxidant concentration on the rate of degradation of Trolox, the relative antioxidant capacity of a compound can be determined. This principle is the basis of the widely used antioxidant capacity assay, ORAC (Huang, et al., J. Agric. Food Chem. 2002, 50, 1815-1821). Unlike ORAC which uses a fluorescent dye indicator, the assay described here directly measures the oxidation of the Trolox derivative, 2-aminoethyl-Trolox (AE-Trolox). This method eliminates interference of the fluorescent dye reaction by tetracycline compounds.
To the first column of a 96-well PCR plate (0.2 mL volume) was added 160 μL of TCWS. One well of the first column would equal one IC50 determination. […] To the remaining wells in columns 2-11 was added 80 μL of AET-WS. Using a multichannel pipettor, column 1 was serially diluted in 2-fold dilutions by removing 80 μL from column 1 and transferring with mixing to column 2. Column 2 was then diluted to column 3 and so on until column 11 where 80 μL of the diluted mixture was removed and discarded. Four wells of row 12 were designated as the 0 test compound/0 AIPH control to which 80 μL of AET-WS was added. One well of row 12 per test compound was designated as the 0 test compound control to which 80 μL of the AET-WS was added.
as §1, with “AIPH” for “Sin-1”, “0 test compound/0 AIPH” for “background”, “PB” for “PC”
Each reaction mixture was analyzed for AE-Trolox by 2D-LCMS on a Shimadzu 2010 equipped with a loading column (Shim-pack MAYI-ODS, 4.6×10 mm) and a gradient column Phenomenex Luna C18(2) column, 3 um, 4.6×50 mm. Using an automated 2-position swithching valve, samples were loaded onto the loading column by Pump C and washed for 1 minute with loading buffer. At 1 minute, the valve was switched to elution position (Position B, reversed flow through loading column) and the samples were eluted through the gradient column. The loading buffer (Buffer C) was 10% acetonitrile in water with 0.2% formic acid and the gradient buffers were water+0.2% formic acid (A buffer) and acetonitrile+0.2% formic acid (B buffer). Typical injection volumes were 30 μL.
From the TIC integration of AE-Trolox and AE-Trolox-d4, a ratio was calculated:
Ratio=AUCAE-Trolox/AUCAE-Trolox-d4
Percent inhibition of AE-Trolox oxidation (measured as disappearance of AE-Trolox) was then determined by:
% Inhibition=[1−((Ratio0−Ratiox)/(Ratioo−Ratiof))]*100

[3] = test system: MS; conditions: cited from earlier work

| Compound | IC50 [1] [µM] | Uric Acid Equivalents [1] | IC50 [2] | Percent Trolox Activity [2] [%] | Trolox Equivalents [2] | Disability in MS ([3]; 200 mg/day) | % Relapses eduction ([3]; MS clinical studies) [%] | % lesion reduction ([3]; MS clinical studies, gadolinium-enhancing MRI lesions) [%] | Uric Acid Equivalents ([1]; listed as methacycline) |
| --- | --- | --- | --- | --- | --- | --- | --- | --- | --- |
| CN(C)[C@@H]1C(O)=C(C(N)=O)C(=O)[C@@]2(O)C(O)=C3C(=O)c4c(O)cccc4[C@@](C)(O)[C@H]3[C@H](O)[C@@H]12 [Oxytetracycline, oxytetracycline] | 133 | 0.09 | 1350 µM | 1 | 0.01 | – | – | – | – |
| CN(C)c1ccc(O)c2c1C[C@H]1C[C@H]3[C@H](N(C)C)C(O)=C(C(N)=O)C(=O)[C@@]3(O)C(O)=C1C2=O [Minocycline, minocycline] | 10.9 | 1.14 | 29 µM and 29.4 µM | 31 | 0.31 | prevented worsening of disability | 79 | 93 | – |
| C[C@H]1c2cccc(O)c2C(=O)C2=C(O)[C@]3(O)C(=O)C(C(N)=O)=C(O)[C@@H](N(C)C)[C@@H]3[C@@H](O)[C@@H]21 [Doxycycline, doxycycline] | 25 | 0.50 | 25 µM | 36 | 0.36 | – | – | – | – |
| CN(C)[C@@H]1C(O)=C(C(N)=O)C(=O)[C@@]2(O)C(O)=C3C(=O)c4c(O)ccc(Cl)c4[C@@](C)(O)[C@H]3C[C@@H]12 [Chlortetracycline] | – | – | 61.6 µM | 15 | 0.15 | – | – | – | – |
| C=C1c2cccc(O)c2C(=O)C2=C(O)[C@]3(O)C(=O)C(C(N)=O)=C(O)[C@@H](N(C)C)[C@@H]3[C@@H](O)[C@H]12 [Methacycline, methacycline] | 4.1 | 3.01 | 136 µM | 7 | 0.07 | – | – | – | approximately 3 |
